PubChem BioAssay AID1794845 (National Center for Advancing Translational Sciences (NCATS), 2023)
Fewer than 10 of roughly 6,900 compounds were called active. Calls come from the whole dose curve; as a rule, active = well fitted curve in the direction sought with a large enough effect; inconclusive = small, poorly fitted or top-dose-only effect, or another doubt; inactive = no such curve, though single readings can be large or run the other way. The list shows a part of the results.

Protein sequences, listed by entry. Tags and fused reporters are not part of them. Lines headed by an entry give the natural chain unless they say otherwise; changes in a name come on top.
UniProt C7C422: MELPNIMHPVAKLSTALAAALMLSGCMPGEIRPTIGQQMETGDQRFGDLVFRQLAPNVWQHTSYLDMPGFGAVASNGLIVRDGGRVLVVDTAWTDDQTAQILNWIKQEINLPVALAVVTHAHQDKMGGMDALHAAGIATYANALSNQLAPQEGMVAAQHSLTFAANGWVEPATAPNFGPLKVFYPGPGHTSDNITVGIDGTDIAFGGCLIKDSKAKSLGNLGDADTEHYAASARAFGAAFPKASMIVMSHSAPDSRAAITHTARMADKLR

Target: Metallo-beta-lactamase type 2 (Klebsiella pneumoniae) (UniProt C7C422)
Assay: qHTS to identify inhibitors of the New Delhi Metallo-beta-lactamase (NDM): primary screen against the NCATS Gemini Collection; note: % of control where 0% means no effect
Settings: NDM-1 enzyme, meropenem hydrolysis, absorbance 300 nm; at 38.4 µM (top of the series) unless noted
Procedure, shortened: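 NDM-1 at 2 nM final in 50 mM HEPES pH 7.0, 1 uM ZnSO4, 0.01% Tween20, preincubated >30 min with compound. Meropenem 50 uM final added; absorbance at 300 nm after 30 min.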

Activity % (negative = inhibition), inactive:
O=C(NCc1cccs1)c1cc(C2CC2)nc2onc(C3CCCNC3)c12 (centres undefined) 4.14%, CCn1nc(C)cc1S(=O)(=O)N[C@H]1[C@H]2CCO[C@H]2[C@@H]1N1CCCCC1 -5.56%, CN1C(=O)C(CC(=O)N2CCC(C#N)CC2)(Cc2ccccc2)c2ccccc21 (centres undefined) -0.488%, C=CCNC(=O)N[C@H]1[C@H](O)[C@@H](NCCOC)[C@@H]2OC[C@H]1O2 12.2% [at 57.5 µM], Cn1cc(C(=O)N2CCC(N(Cc3ccccc3)C3CCOCC3)CC2)cn1 -2.23%, C=CCC1(CO)CCCN(C(=O)CCCn2nc(C)cc2C)C1 (centres undefined) 1.16%, CC(c1ccc(-c2cc(N3CCN(C)CC3)nc(N)n2)cc1)N1CCOCC1 (centres undefined) 9.83%, NC(=O)CN1C(=O)CO[C@H]2CN(Cc3ccc(Cl)cc3)C[C@H]21 7.04% [at 57.5 µM], CCNC(=O)N1C[C@@H](F)[C@@H](OCc2nc3ccc(F)cc3[nH]2)C1 6.65% [at 57.5 µM], CCCS(=O)(=O)N1CCCC(Cn2c(C)nc3cccnc32)C1 (centres undefined) 12.3%, CCN1CCN(Cc2cc3ccc(C)cc3nc2-c2ccc(OC)c(OC)c2)CC1 4.02%, CC(C)CNC(=O)c1ccc2nnc(C(C)(C)C)n2c1 36.1% [at 57.5 µM], COCCNC(=O)CC[C@]12CC[C@](C)(O)C[C@H]1C(C)(C)C[C@@H]2NS(=O)(=O)c1ccc(C)cc1 24.6%, COc1cccc(-c2[nH]cnc2-c2ccccc2)c1OCCCN(C)C 1.78%, F[C@@H]1CN(Cc2nccs2)C[C@@H]1OCc1nc2ccccc2o1 11.2% [at 57.5 µM], O=C(COc1ccccc1)NC1CCc2nnc(C3CC3)n2CC1 (centres undefined) -0.21%, CN(C(=O)c1cccc2ccccc12)C1CCCN(C2Cc3ccccc3C2)C1 (centres undefined) -0.781%, COc1ccccc1NC(=O)N1CC(C(=O)NCC2CC2)CC(c2ccccc2)C1 (centres undefined) 24.9%, COC(=O)[C@@H]1Cc2ncn(Cc3ccccc3)c2CN1C(=O)c1cccs1 9.04% [at 57.5 µM], CCOc1ccccc1CN1C[C@@H](CO)[C@H](C2CCN(C(C)=O)CC2)C1 -5.29%, CNC(=O)c1cc(C2CC2)nc2c1c(C1CCCN(C(=O)Cc3ccccn3)C1)nn2C (centres undefined) 6.71%, CC(C)C[C@@H](NC(=O)[C@@H]1C[C@@H](NC(=O)c2cnccn2)CCN1C(=O)COCC(=O)O)C(N)=O -1.34%, Cc1ccc(N2CC(C)N(C(=O)c3ccc(-n4cnnn4)cc3)CC2=O)cc1 (centres undefined) 6.66%, Cc1ccc(-c2nnc3ccc(-c4ccoc4)nn23)nc1 18% [at 77.1 µM], O=C(c1cn[nH]c1-c1ccc(F)cc1)N1CC2CC(C1)[C@H]1CCCC(=O)N1C2 (some centres undefined) -1.35%, O=C(Nc1ccccc1F)C1CN(C2CCCCC2)C(=O)N1 (centres undefined) 10.1% [at 57.5 µM], CNC(=O)c1cc[nH]c1C1CCCN(C(=O)Cc2ccsc2)C1 (centres undefined) 2.21%, O=C(NCc1ccccc1)C1CCN(c2cnc3nccnc3c2)CC1 3%, CN(C)C[C@@H]1CN(c2ncccn2)C[C@H]1NS(=O)(=O)c1ccc(Cl)cc1 1.78%, COc1ccccc1C(=O)N1CCC2(C1)C(=NC1CCCCC1)NC(=O)N2c1cc(F)cc(F)c1 (centres undefined) 11.2%, CSc1ccc(C(=O)N2C[C@@H](CN3CCN(C)CC3)[C@@H](CO)C2)cc1 1.48%, COCC(=O)N[C@H]1CCN(C(=O)COC)[C@H](C(=O)N[C@H](Cc2c[nH]c3ccccc23)C(N)=O)C1 1.71%, COc1ccc(OCc2nc(C)c(CCO)c(=O)n2CC(=O)NC(C)CCc2ccccc2)cc1 (centres undefined) 4.23%, Cc1ccccc1CN1CCC(N2CCCC(C(=O)NC3CC3)C2)CC1 (centres undefined) 11.3%, C=CCCC(CN1CCCC1)Oc1ccc(C(=O)NCC)cn1 (centres undefined) 2.49%, O=C1CCCCC(CNC(=O)c2cn[nH]c2-c2ccccc2)N1 (centres undefined) -5.25%, Cc1nnc2n1CCC(NC(=O)c1ccoc1)CC2 (centres undefined) -0.203%, O=C(Cn1ccnc1)N1CCC(N2C(=O)C3(CCCC3)C2c2ccccc2)CC1 (centres undefined) -1.04%, COc1ccc(OC)c(S(=O)(=O)N2CC(N(C3CCOCC3)S(C)(=O)=O)C2)c1 5.32%, CCOCC(=O)N[C@@H]1CN(S(C)(=O)=O)C[C@H]1CN(C)C -0.0867%, CCCc1ccc2oc(C(=O)N(C)CCC3CCCCO3)c(C)c2c1 (centres undefined) 4.21%, O=C(Nc1ccccc1)c1cnc2c(c1)N(C(=O)Cc1ccc(O)cc1)CCC2 8.52% [at 57.5 µM], O=C(CC1CCCC1)N1C[C@@H](CO)[C@@H]2Oc3ccc(Cl)cc3[C@@H]21 7.23%, Cc1nc(C)c(C(=O)N2Cc3ccccc3C(O)C2)s1 (centres undefined) 2.96%, COc1ccccc1CNC(=O)c1ccc2c(c1)N(C)C1CCCCN1C2=O (centres undefined) -18.5%, O=C(NC1CCCCC1)C1CN(C(=O)c2ccc(Br)o2)CC12CCOCC2 (centres undefined) 7.29%, CN(C)[C@H]1CCN(C(=O)c2ccc(SCCO)cc2)C[C@H]1CCC(=O)O 3.94%, CN(C)C[C@@H]1CN(c2ccccn2)C[C@H]1NC(=O)NC(C)(C)C -0.112%, O=C(CC1CCOC2(CCN(Cc3cccs3)CC2)C1)NC1CC1 (centres undefined) 2.86%, CN(C)c1nc2c(c(=O)[nH]1)CCN(Cc1ccsc1)CC2 2.54%, CCNC(=O)[C@@H]1C[C@H](n2cc(CN(C)C(=O)NC3CCCCC3)nn2)CN1 35.9%, COc1nccnc1NC1CCN(C(=O)NC2CCCC2)CC1 10.1%, COCCCn1c(C)cc(C(=O)N2CCCC(c3[nH]ccc3C(N)=O)C2)c1C (centres undefined) 1.15%, CN(C)CC(O)c1cc2n(n1)CCN(C(=O)c1cc(=O)[nH]c(=O)[nH]1)C2 (centres undefined) 0.619%, FC(F)(F)c1ccc(CN2CCCC3(CC(c4ccccn4)=NO3)C2)cc1 (centres undefined) 11.7%, O[C@@H]1CO[C@H]2[C@@H]1OC[C@@H]2n1nnnc1Sc1ncccn1 -0.504% [at 57.5 µM], COc1ccc(C(=O)N2CCn3nc(C(O)CS(C)(=O)=O)cc3C2)cn1 (centres undefined) 8.65%, O=C(O)C[C@@H]1CCN(C(=O)c2ccc(F)cc2)C[C@@H]1CCN1CCN(c2ccc(F)cc2)CC1 -0.0953%, O=C(NC1CCCCC1)c1ccc2oc(-c3ccnc(Cl)c3)nc2c1 2.2%, Cc1ccc(S(=O)(=O)NC[C@H]2OC[C@@H](NCc3ccc(S(C)(=O)=O)cc3)[C@@H]2O)cc1 -1.22%, CCCOc1c(CN2CCCNCC2)cc(Cl)cc1OC -3.43%, CN1C(=O)N(C)C2(CCN(CCOc3ccccc3)C2)C1=O (centres undefined) -7.52%, CCNC(=O)N1CC[C@H]2CC(=O)N(CCc3cccc(OC)c3OC)CC[C@H]2C1 -7.76% [at 57.5 µM], Cc1ccccc1Cn1cc(-c2ccncc2)cc1C(=O)N1CCCC1 15.8%, Cn1nc(C(=O)N2CCOc3ccc(CCC(N)=O)cc3C2)c2ccccc21 6.62%, O=C(Nc1ccccc1F)N1CC2CCC(C1)N2Cc1ccc(-c2cc(F)cc(F)c2)cc1 0.611%, CN(C)C[C@@H]1CN(Cc2cccnc2)C[C@H]1NC(=O)CCn1cccn1 25.7%, O=C(c1cc2n(n1)CC(c1ccc(Cl)cc1)OC2)N1CCCCC1 (centres undefined) 14.8%, O=C(NCCCc1ccccc1)C1CN(C2CCCC2)C(=O)N1 (centres undefined) 6.24% [at 57.5 µM], Cc1ccc(CC(=O)N2CCC3(C2)C(=O)N(C)c2ccccc23)cc1 (centres undefined) -1.96%, O=C1Nc2ccccc2C2(CCN(C(=O)c3ccccc3F)C2)O1 (centres undefined) -0.396% [at 57.5 µM], O=C(NC1CCCCC1)c1ccc2nnc(Cc3ccc(Cl)cc3)n2c1 35.2%, CC(c1cccc(-c2cccc(C(=O)N(C)C)n2)c1)N1CCCC1 (centres undefined) -4.1%, C=CCN1CCN(C(=O)c2ccc3c(c2)C(O)CCCCCN3CCOC)CC1 (centres undefined) -0.725%, O=C(c1ccccc1)N1CCC2(CC1)C(=O)NCN2Cc1ccc(Cl)cc1 -8.28%, COCC(=O)NC[C@H]1O[C@@H](CO)[C@@H](O)[C@H]1N1CCc2ccccc2C1 2.47% [at 57.5 µM], Cc1nn2c(c1-c1cccnc1N1CCOCC1)N(C(=O)c1cc3ccccc3n1C)CCC2 43.4%, COc1ccccc1CN1CCCC(CN(CCN(C)C)C(=O)c2ccccc2OC)C1 (centres undefined) 6.01%, CN(CCCN1c2ccccc2CCc2ccccc21)C(=O)C1CNCCO1 (centres undefined) 0.427%, CC(C)(C)CC(=O)N1CCN2C(=O)c3ccc(Cl)cc3NC(=O)[C@H]2C1 51.1% [at 57.5 µM], COc1cccc(-c2cc(C3CCN(C(=O)Nc4ccccc4C(F)(F)F)CC3)[nH]n2)c1 -2.65%, COc1ccc(N2CC3CCC(C2)N3CC2CCCC2)cc1 5.97% [at 57.5 µM], Cc1cccc(=O)n1CCC(=O)NCc1cc2n(n1)CCN(C(=O)N(C)C)C2 2.33%, O=C(c1cccs1)N1CCCCCC1CN1CCCC1 (centres undefined) 27.3%
